Values from PubChem BioAssay AID1224826 (NIAID, 2016)

Purpose: 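Knock-downs that raise or lower Tnf reporter signal after endotoxin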 (primary screen)
Cell system: RAW264.7 G9 macrophages from mouse bearing reporters for p65 (GFP) and the Tnf promoter (mCherry)
Reagent: siRNA pool against mouse genes, 100 nM
Time to read-out: 16 h of LPS stimulation, after 2 days of siRNA transfection
Conditions: bacterial lipopolysaccharide (Salmonella minnesota R595), 10 ng/ml
Measured: 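Imaged Tnf reporter mCherry in nuclei, minus background, normalised per plate to the median and expressed as robust z-scores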
Scale: Tnf reporter robust z-score: higher = stronger Tnf promoter reporter signal after LPS
Hit rule: 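a well counts as active at a score of -1.3 or below (Tlr4 knock-down control median) or above 3 (raised signal); controls and wells holding fewer than 50 cells are excluded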
Calls: active = Tnf reporter clearly lowered or raised; inactive = no clear change in Tnf reporter
This is an unselected part of about 17,000 deposited reagents. In the full data, about 1,110 (6.6%) got an active call. 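Active means lowered or raised reporter signal; replicate intensities are raw and not normalised per plate.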 A reagent listed more than once was tested more than once; the source does not tell the runs apart. Not all columns of the deposit are shown.

| gene | Tnf reporter robust z-score | fewer than 50 cells in well | Call |
| --- | --- | --- | --- |
| Pcdhgb6 | – | fewer than 50 cells per well; well left out of calls | inactive |
| Haus6 | 0.58 | enough cells in well | inactive |
| Ly6m | 4.14 | enough cells in well | active |
| Tpgs1 | – | fewer than 50 cells per well; well left out of calls | inactive |
| Rrp15 | 0.67 | enough cells in well | inactive |
| Fcrl1 | -0.7 | enough cells in well | inactive |
| Afg2a | 1.08 | enough cells in well | inactive |
| Kbtbd4 | -1.08 | enough cells in well | inactive |
| Rps11 | – | fewer than 50 cells per well; well left out of calls | inactive |
| Ipo5 | -0.4 | enough cells in well | inactive |
| Cep295nl | -0.89 | enough cells in well | inactive |
| Igsf11 | -1.22 | enough cells in well | inactive |
| Plekhb1 | -0.34 | enough cells in well | inactive |
| Mmp25 | -0.37 | enough cells in well | inactive |
| Ppard | 0.24 | enough cells in well | inactive |
| Mgat5b | -0.69 | enough cells in well | inactive |
| H2ac8 | 2.05 | enough cells in well | inactive |
| Or14j7 | 0.76 | enough cells in well | inactive |
| E330037G11Rik | 0.5 | enough cells in well | inactive |
| Or2n1b | -1.09 | enough cells in well | inactive |
| Neurod1 | -1.78 | enough cells in well | active |
| Icam5 | -0.4 | enough cells in well | inactive |
| Utp11 | 0.22 | enough cells in well | inactive |
| Pik3cg | 0.64 | enough cells in well | inactive |
| Pik3cg | 0.06 | enough cells in well | inactive |
